# Experimental data: the supplement of paper PMC10470496
# Where “and” joins values, the source holds several entries; their conditions need not be identical. Equal entries are not always repeated. Structures can show the parent of a compound that is named as a salt. This is one part of the list. Repeats are few or missing, and single values can be far off.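 The strains were three CDC resistance-bank clinical C. auris isolates from clades III, IV and I, cultured in RPMI-1640 at 35°C. Growth was background-corrected OD600 versus vehicle-only wells on the same plate. A hit needed >50% inhibition in two or more strains plus a plate-corrected B-score exceeding 0.1.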
# Key:
# Assay in all cases: growth relative to vehicle control (OD600 ratio) (fraction); higher = less inhibition
# Conditions in all cases: 24 h
# C. auris AR-384 = system: C. auris AR-384
# C. auris AR-386 = system: C. auris AR-386
# C. auris AR-387 = system: C. auris AR-387
Structure (SMILES),growth (C. auris AR-384; 1 µM),growth (C. auris AR-384; 10 µM),growth (C. auris AR-386; 1 µM),growth (C. auris AR-386; 10 µM),growth (C. auris AR-387; 1 µM),growth (C. auris AR-387; 10 µM)
COC(=O)Nc1nc2cc(C(=O)c3ccccc3)ccc2[nH]1 [Mebendazole],1.05,0.82,1,0.86,0.77,1.22
C#Cc1cccc(Nc2ncnc3cc(OCCOC)c(OCCOC)cc23)c1 [Erlotinib],0.74,0.82,0.71,0.74,0.59,0.61
CCOc1cc2ncc(C#N)c(Nc3ccc(F)c(Cl)c3)c2cc1NC(=O)/C=C/CN(C)C [Pelitinib (EKB-569)],0.79,1.09,1.19,1.1,1.01,1.03
CCN(CC)CCNC(=O)c1c(C)[nH]c(/C=C2\C(=O)Nc3ccc(F)cc32)c1C [Sunitinib Malate],0.62,0.58,0.8,0.66,0.56,0.72
CC(C)(C)NC(=O)N[C@H](C(=O)N1C[C@H]2[C@@H]([C@H]1C(=O)NC(CC1CCC1)C(=O)C(N)=O)C2(C)C)C(C)(C)C (stereo not given in full) [Boceprevir],0.87,0.87,0.76,1.05,1.15,1.09
COc1ccc2[nH]c([S@@+]([O-])Cc3ncc(C)c(OC)c3C)nc2c1 [Esomeprazole sodium],0.75,0.72,1.04,0.89,1.06,1.13
CCn1cc(C(=O)O)c(=O)c2cc(F)c(N3CCN(C)CC3)cc21 [Pefloxacin Mesylate],0.59,0.44,0.64,0.85,0.67,0.64
CO[C@@H]1[C@H](N(C)C(=O)c2ccccc2)C[C@H]2O[C@]1(C)n1c3ccccc3c3c4c(c5c6ccccc6n2c5c31)C(=O)NC4 [Midostaurin (PKC412)],0.97,0.7,0.6,0.75,0.85,0.84
CC(N)C12CC3CC(CC(C3)C1)C2 (stereo not given) [Rimantadine],0.86,1.07,0.85,0.72,0.71,0.66
CO[C@H]1O[C@H](COS(=O)(=O)O)[C@@H](O[C@@H]2O[C@@H](C(=O)O)[C@@H](O[C@H]3O[C@H](COS(=O)(=O)O)[C@@H](O[C@@H]4O[C@H](C(=O)O)[C@@H](O[C@H]5O[C@H](COS(=O)(=O)O)[C@@H](O)[C@H](O)[C@H]5NS(=O)(=O)O)[C@H](O)[C@H]4O)[C@H](OS(=O)(=O)O)[C@H]3NS(=O)(=O)O)[C@H](O)[C@H]2OS(=O)(=O)O)[C@H](O)[C@H]1NS(=O)(=O)O [Fondaparinux Sodium],0.62,0.61,0.86,0.89,1.07,0.66
CC(C)NCC(O)COc1ccc(CCOCC2CC2)cc1 (stereo not given) [Betaxolol],0.91,1,0.91,1.01,1,0.88
CN(C)[C@@H]1C(O)=C(C(N)=O)C(=O)[C@@]2(O)C(O)=C3C(=O)c4c(O)cccc4[C@@](C)(O)[C@H]3C[C@@H]12 [Tetracycline HCl],0.66,0.92,0.9,0.57,0.77,0.74
CC(=O)c1c(C)c2cnc(Nc3ccc(N4CCNCC4)cn3)nc2n(C2CCCC2)c1=O,0.67 and 1.18,1.19,0.87 and 0.98,1.13 and 1.39,0.8 and 1.02,1.18 and 1.01
O=C(O)c1cc(O)c(O)c(O)c1 [Gallic acid],0.75,0.77,0.99,0.94,0.81,1.02
FC(F)(F)c1ccc(CNc2ccc(Cc3c[nH]c4ncc(Cl)cc34)cn2)cn1 [Pexidartinib (PLX3397)],0.88,0.96,0.72,0.86,0.71,0.86
CCCC(=O)[O-].[Na+] [Sodium butyrate],1.3,1.33,1.23,1.28,1.26,1.06
c1ccc2[nH]c(-c3cscn3)nc2c1 [Thiabendazole],1.17,0.81,0.86,1.37,1.04,0.92
CN[C@H]1CC[C@@H](c2ccc(Cl)c(Cl)c2)c2ccccc21 [Sertraline HCl],0.86,0.82,0.79,0.86,0.86,0.69
CC(=O)SCC(Cc1ccccc1)C(=O)NCC(=O)OCc1ccccc1 (stereo not given) [Racecadotril],1.05,1.08,1.06,0.73,0.85,0.64
Nc1ccc(S(=O)(=O)Nc2ncccn2)cc1 [Sodium sulfadiazine],1.26,0.83,0.88,0.87,0.95,0.66
COC(=O)[C@H]1[C@H]2C[C@@H]3c4[nH]c5cc(OC)ccc5c4CCN3C[C@H]2C[C@@H](OC(=O)c2cc(OC)c(OC)c(OC)c2)[C@@H]1OC [Reserpine],1.58,0.85,1.13,0.81,0.76,1.17
O=c1c(-c2ccc(O)cc2)coc2cc(O)cc(O)c12 [Genistein],0.83,0.71,0.86,0.91,0.71,0.66
O=NN(CCCl)C(=O)NC1CCCCC1 [Lomustine],0.86,0.85,0.89,0.92,1.08,0.89

# Given as tab-separated lines: 2 of the compounds above
Structure (SMILES)	growth (C. auris AR-384; 1 µM)	growth (C. auris AR-384; 10 µM)	growth (C. auris AR-386; 1 µM)	growth (C. auris AR-386; 10 µM)	growth (C. auris AR-387; 1 µM)	growth (C. auris AR-387; 10 µM)
CN[C@H]1CC[C@@H](c2ccc(Cl)c(Cl)c2)c2ccccc21 [Sertraline HCl]	0.86	0.82	0.79	0.86	0.86	0.69
CC(=O)SCC(Cc1ccccc1)C(=O)NCC(=O)OCc1ccccc1 (stereo not given) [Racecadotril]	1.05	1.08	1.06	0.73	0.85	0.64

# (listing goes on)

Structure (SMILES),growth (C. auris AR-384; 1 µM),growth (C. auris AR-384; 10 µM),growth (C. auris AR-386; 1 µM),growth (C. auris AR-386; 10 µM),growth (C. auris AR-387; 1 µM),growth (C. auris AR-387; 10 µM)
CC(C)(Sc1cc(C(C)(C)C)c(O)c(C(C)(C)C)c1)Sc1cc(C(C)(C)C)c(O)c(C(C)(C)C)c1 [Probucol],0.9,1.18,0.98,0.45,0.71,0.62
Nc1ncnc2c1ncn2[C@@H]1O[C@H](CO)[C@@H](O)[C@H]1O [Adenosine],0.7,0.64,0.69,0.8,0.78,0.99
NNc1nncc2ccccc12 [Hydralazine HCl],1.23,1.38,1.19,1.19,1.07,1.18
CCCC1O[C@@H]2C[C@H]3[C@@H]4CCC5=CC(=O)C=C[C@]5(C)[C@H]4[C@@H](O)C[C@]3(C)[C@]2(C(=O)CO)O1 (stereo not given in full) [Budesonide],1.08,0.86,0.84,0.81,1.07,1.12
CN1CCC(COc2cnc(-c3cccc(Cn4nc(-c5cccc(C#N)c5)ccc4=O)c3)nc2)CC1,0.76,0.74,1.02,0.58,0.63,0.78
C[N+](C)(C)CCOP(=O)(O)OP(=O)([O-])OC[C@H]1O[C@@H](n2ccc(N)nc2=O)[C@H](O)[C@@H]1O [Citicoline sodium],0.96,0.85,0.62,0.67,0.94,1.27
CC(=O)N[C@@H](CS)C(=O)O [Acetylcysteine],0.96,1.02,1.14,1.13,0.89,0.87
CC(=O)[C@@]1(O)CC[C@H]2[C@@H]3CCC4=CC(=O)CCC4=C3[C@@H](c3ccc(N(C)C)cc3)C[C@@]21C [Ulipristal],0.9,1.05,0.66,0.98,0.98,0.89
CCCCC(=O)O[C@H]1CC[C@H]2[C@@H]3CCc4cc(O)ccc4[C@H]3CC[C@]12C [Estradiol valerate],0.9,0.97,0.9,0.58,0.62,1.03
CCCCOC(=O)c1ccc(N)cc1 [Butamben],1.05,1.23,1.27,1.34,1.38,1.25
CCOc1ccccc1OC(c1ccccc1)C1CNCCO1 (stereo not given) [Reboxetine mesylate],1.15,0.81,0.91,1.08,0.64,0.98
CNC(=C[N+](=O)[O-])NCCSCc1ccc(CN(C)C)o1 [Ranitidine Hydrochloride],0.91,0.91,0.9,0.94,1.01,1
CO[C@H]1/C=C/O[C@@]2(C)Oc3c(C)c(O)c4c(O)c(c(/C=N/N5CCN(C6CCCC6)CC5)c(O)c4c3C2=O)NC(=O)/C(C)=C\C=C\[C@H](C)[C@H](O)[C@@H](C)[C@@H](O)[C@@H](C)[C@H](OC(C)=O)[C@@H]1C [Rifapentine],0.8,0.9,0.95,0.95,0.95,1.06
CCCc1nn(C)c2c(=O)[nH]c(-c3cc(S(=O)(=O)N4CCN(C)CC4)ccc3OCC)nc12 [Sildenafil Citrate],0.6,0.61,0.57,0.92,0.72,0.81
CS(=O)(=O)CCNCc1ccc(-c2ccc3ncnc(Nc4ccc(OCc5cccc(F)c5)c(Cl)c4)c3c2)o1 [Lapatinib],0.92,0.88,0.97,0.84,0.91,0.83
Nc1cc(C(Cl)=C(Cl)Cl)c(S(N)(=O)=O)cc1S(N)(=O)=O [Clorsulon],1.12,0.89,1.29,1,0.88,0.66
NC(=O)C1CCCc2c1[nH]c1ccc(Cl)cc21 (stereo not given) [Selisistat (EX 527)],0.97,0.92,1.29,1.36,0.92,0.98
COC(=O)C1=C(C)NC(C)=C(C(=O)OCCN2CCN(C(c3ccccc3)c3ccccc3)CC2)C1c1cccc([N+](=O)[O-])c1 (stereo not given) [Manidipine 2HCl],0.94,0.99,0.67,0.56,0.84,1.15
C[C@H]1COc2c(C3(N)CC3)c(F)cc3c(=O)c(C(=O)O)cn1c23 [Pazufloxacin mesylate],0.8,0.57,0.79,0.62,0.57,0.74
COc1c(C)c2c(c(O)c1C/C=C(\C)CCC(=O)OCCN1CCOCC1)C(=O)OC2 [Mycophenolate Mofetil],0.94,1.32,1.39,0.84,1.07,1.05
CC(C)[C@H](O)C(=O)N[C@@H](C)C(=O)N[C@@H]1C(=O)N(C)CCc2ccccc21,1.33,1.16,1.25,0.84,0.71,1.16
CC(C)(Oc1ccc(C2CC2(Cl)Cl)cc1)C(=O)O (stereo not given) [Ciprofibrate],0.78,0.86,1.16,1.18,1.1,1.02
